Measured values as given in PubChem BioAssay AID2517 (National Center for Advancing Translational Sciences (NCATS), 2010).
The campaign covered roughly 350,000 compounds. About 1,200 (0.34%) were called active. This list was built around the results that the source calls inconclusive (neither active nor inactive); the mix of calls is not that of the screen. Calls follow the shape of the dose curve; as a rule, active = well fitted inhibition curve with a large enough effect; inconclusive = small, poorly fitted or top-dose-only effect; inactive = no such curve, though single readings can be large or run the other way. Potencies beside an inconclusive call are fits to weak or partial responses and may not hold up.

The chains behind the UniProt entries cited, without tags or fusion partners.
UniProt P27695, whole entry, looked up: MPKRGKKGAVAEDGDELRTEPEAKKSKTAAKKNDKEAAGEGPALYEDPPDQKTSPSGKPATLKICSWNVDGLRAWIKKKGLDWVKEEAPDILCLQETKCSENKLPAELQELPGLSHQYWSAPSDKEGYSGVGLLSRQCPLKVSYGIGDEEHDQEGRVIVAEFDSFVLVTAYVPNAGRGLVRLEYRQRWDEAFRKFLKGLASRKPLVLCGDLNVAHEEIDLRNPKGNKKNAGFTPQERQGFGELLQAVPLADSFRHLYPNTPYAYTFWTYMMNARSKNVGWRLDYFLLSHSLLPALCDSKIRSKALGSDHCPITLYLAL

Molecular target: DNA repair nuclease/redox regulator APEX1 (Homo sapiens) (UniProt P27695)
Experiment: qHTS Assay for Inhibitors of the Human Apurinic/apyrimidinic Endonuclease 1 (APE1); also: nearly all actives have a fitted effect of over 55% in size;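 as to activity change, negative = inhibition: plate controls were vehicle for no effect and reference inhibitor for full effect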
Conditions: recombinant APE1, TAMRA/BHQ-2 abasic DNA cleavage fluorescence; activity change, negative = inhibition: at 65.8 µM (top of the series)
How it was run: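 Incision of a quenched TAMRA/BHQ-2 THF abasic-site duplex (50 nM) by 0.75 nM APE1, after 15 min compound preincubation, measured as fluorescence increase over three 60 s reads. Values normalized to buffer, DMSO and NSC13755 control wells.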
Potency is read from the fitted curve at half-maximal effect.

Compound | activity change, negative = inhibition | Potency
COc1ccc(C(=O)NNC(=O)c2ccc(S(=O)(=O)N3CC(C)OC(C)C3)cc2)cc1 (stereo not drawn) | inactive: 18.1% | –
Cc1ccc(-n2nc(-c3ccco3)cc2C(=O)O)c(C)c1 | – | inconclusive: 22.4 µM [inhibitor, partial curve]
CCOc1cc(/C=C2\SC(=S)N(Nc3ccccc3)C2=O)ccc1O | – | inconclusive: 44.7 µM [inhibitor, single point]
CCn1c(CNC(=O)C2CCCCC2)cc2ccccc21 | inactive: 8.78% | –
COc1ccc(CC(=O)Nc2ccc(C(=O)NC(C)(C)C)cc2)cc1 | – | inconclusive: 0.0562 µM [inhibitor, full curve, poor fit]
CC(C)C[C@@H](CC(=O)N[C@H](CC(=O)N[C@@H]1CCNC[C@H]1C(=O)N[C@H](CC(=O)N[C@@H](CCC(=O)O)CC(=O)O)Cc1ccccc1)C(C)C)NC(=O)[C@@H]1CCCC[C@H]1N | inactive: -0.935% | –
O=C(O)c1ccc(CSc2nc3ccc(N4C(=O)C5C6C=CC(C6)C5C4=O)cc3s2)cc1 (stereo not drawn) | inactive: 1.1% | –
O=C(O)C(c1ccccc1)N1C(=O)/C(=C\c2ccc(-c3cccc(Cl)c3)o2)SC1=S (stereo not drawn) | – | inconclusive: 21.2 µM [inhibitor, single point]
NS(=O)(=O)c1ccc(N=Nc2c[nH]c(=O)c(O)c2)cc1 | – | inconclusive: 25.1 µM [inhibitor, partial curve]
Cc1occc1-c1n[nH]c(=S)n1CC(C)C | – | inconclusive: 20 µM [inhibitor, single point]
C=CCn1c(=O)/c(=C/c2cc(OC)c(OC)c(OC)c2)s/c1=C(/C#N)c1nc2ccccc2n1C | – | inconclusive: 39.8 µM [inhibitor, single point]
O=C(c1ccc2ncsc2c1)N1CCCCC1 | inactive: 36.7% | –
O=C1C=C(Nc2ccc(O)cc2)CC(c2ccco2)C1 (stereo not drawn) | inactive: -1.45% | –
CCOC(=O)CNc1oc(-c2ccccc2)nc1-c1ccccc1 | – | inconclusive: 3.55 µM [inhibitor, full curve, poor fit]
COc1cc([N+](=O)[O-])cc(/C=N/NC(=O)CC#N)c1O | – | inconclusive: 31.6 µM [inhibitor, partial curve]
Cn1c(=O)oc2cc(S(=O)(=O)Nc3cccc([N+](=O)[O-])c3)ccc21 | inactive: 24.8% | –
COC(=O)c1cc(OC)c(OC)cc1NC(=O)c1ccc(OC)c(OC)c1 | – | inconclusive: 31.6 µM [inhibitor, partial curve, poor fit]
Cn1c(C(=O)NC2CCCCC2)cc2sccc21 | inactive: 2.22% | –
O=C(Cc1cccc2ccccc12)N/N=C/c1ccc(OC(=O)/C=C/c2ccco2)cc1 | – | inconclusive: 31.6 µM [inhibitor, single point]
CC(=O)Nc1ccc2c(c1)N(C(=O)CN(C)C)c1ccccc1CC2 | – | inconclusive: 5.01 µM [inhibitor, single point]
O=C(O)c1ccc(NC(=O)c2cn(-c3ccccc3)nc2-c2ccc(F)cc2)cc1 | – | inconclusive: 20 µM [inhibitor, single point]
O=C(/C=C/c1ccco1)NCC1OCCc2ccccc21 (stereo not drawn) | – | inconclusive: 31.6 µM [inhibitor, single point]

Compound | activity change, negative = inhibition | Potency
O=c1c(-c2cc(F)cc(F)c2)nc2cnc(N3CCNCC3)nc2n1Cc1cccs1 | inactive: -0.387% | –
N#C/C(=C/c1ccc(-c2cc(C(=O)O)cc(C(=O)O)c2)o1)c1nc2ccccc2s1 | – | inconclusive: 28.2 µM [inhibitor, partial curve]
CCN1C=C(Cc2ccc(OC)cc2)C2=C(C1)C(c1ccc(OC)cc1)C(C#N)=C(N)O2 (stereo not drawn) | inactive: 9.35% | –
C=C(C)C1CCC2(C(=O)O)CCC3(C)C(CCC4C5(C)C(C=O)C(O)C(C)(C)C5CCC43C)C12 (stereo not drawn) | – | inconclusive: 5.01 µM [inhibitor, partial curve]
CCN(CC)C(=O)/C(=C/c1cn(S(=O)(=O)N(C)C)c2ccccc12)NC(=O)c1ccc(OC)cc1 | – | inconclusive: 0.199 µM [inhibitor, full curve, poor fit]
COc1ccc2nc(-c3ccc(N(C)C)cc3)sc2c1 | inactive: -1.89% | –
C[C@H]1CCC[C@@]2(C)CCCC[C@]12O | inactive: 9.26% | –
COc1cc(C(=O)NC2CCCCC2)ccc1OCc1ccc(Cl)cc1Cl | – | inconclusive: 4.47 µM [inhibitor, single point]
O=C(CCCOC(=O)c1ccc(O)cc1O)c1ccc(F)cc1 | – | inconclusive: 23.8 µM [inhibitor, single point]
CCN1C(=O)C(CC(=O)NC)N(NC(=O)c2ccccc2)C1=S (stereo not drawn) | – | inconclusive: 10 µM [inhibitor, single point]
CC1CCN(S(=O)(=O)c2ccc3ncn(CC(=O)N(C)Cc4ccccc4)c(=O)c3c2)CC1 | – | inconclusive: 39.8 µM [inhibitor, partial curve, poor fit]
COc1cc(S(=O)(=O)NC2CCSc3ccccc32)ccc1NC(C)=O (stereo not drawn) | – | inconclusive: 21.2 µM [inhibitor, single point]
CCCc1nc2sc3c(SCC(=O)NCc4ccco4)ncnc3c2c2c1CCC2 | – | inconclusive: 10 µM [inhibitor, partial curve]
Cn1c(=O)[nH]c2ncn(C)c2c1=O | – | inconclusive: 6.31 µM [inhibitor, single point]
Cc1nnc2n(-c3ccccc3)c(=O)c3c4c(sc3n12)COC(C(C)C)C4 (stereo not drawn) | – | inconclusive: 10 µM [inhibitor, single point]
Cc1cc(C)cc(NC(=O)COC(=O)[C@@H](NC(=O)c2ccco2)C(C)C)c1 | inactive: -5.97% | –
O=C(Oc1ccccc1)n1c(=S)oc2ccccc21 | inactive: -14.5% | –
COc1ccccc1-n1c([S-])c(C(=O)Nc2ccccc2C(F)(F)F)[n+]2ccc(C(=O)NCCO)cc12 | – | inconclusive: 44.7 µM [inhibitor, single point]
O=C(c1cnn2c(C(F)F)cc(-c3ccccc3)nc12)N1CCCCC1c1cccnc1 (stereo not drawn) | inactive: -1.03% | –
N[C@@H](C(=O)O)c1ccc(C(=O)O)c(O)c1 | – | inconclusive: 44.7 µM [inhibitor, single point]
CCOC(=O)c1cc(C(=O)n2cc(Cl)cn2)nn1C | – | inconclusive: 1.41 µM [inhibitor, partial curve]
